From paper PMC11892261
Results are given in words; binding and its absence hold for the method and conditions named. Binding seen in cells or lysates may run through a third protein. These calls come from enrichment with a bait or labelling near it, and not all partners need be listed. Tags and fused reporters may be left off the sequences shown.

Chains of the proteins cited; added tags and fusions are not shown.
UniProt P14618: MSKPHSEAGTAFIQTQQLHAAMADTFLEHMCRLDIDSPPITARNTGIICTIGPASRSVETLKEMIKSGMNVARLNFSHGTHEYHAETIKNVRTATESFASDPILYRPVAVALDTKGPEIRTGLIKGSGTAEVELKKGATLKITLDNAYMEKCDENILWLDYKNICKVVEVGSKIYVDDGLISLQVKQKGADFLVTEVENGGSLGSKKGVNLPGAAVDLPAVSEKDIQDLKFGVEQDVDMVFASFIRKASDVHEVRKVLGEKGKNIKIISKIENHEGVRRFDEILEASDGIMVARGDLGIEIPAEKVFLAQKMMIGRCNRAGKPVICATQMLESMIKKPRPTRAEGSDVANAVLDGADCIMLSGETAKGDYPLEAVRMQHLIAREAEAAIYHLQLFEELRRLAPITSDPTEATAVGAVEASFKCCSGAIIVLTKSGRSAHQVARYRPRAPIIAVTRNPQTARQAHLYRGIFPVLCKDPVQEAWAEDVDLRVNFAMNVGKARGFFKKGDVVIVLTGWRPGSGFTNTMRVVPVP
UniProt P26038: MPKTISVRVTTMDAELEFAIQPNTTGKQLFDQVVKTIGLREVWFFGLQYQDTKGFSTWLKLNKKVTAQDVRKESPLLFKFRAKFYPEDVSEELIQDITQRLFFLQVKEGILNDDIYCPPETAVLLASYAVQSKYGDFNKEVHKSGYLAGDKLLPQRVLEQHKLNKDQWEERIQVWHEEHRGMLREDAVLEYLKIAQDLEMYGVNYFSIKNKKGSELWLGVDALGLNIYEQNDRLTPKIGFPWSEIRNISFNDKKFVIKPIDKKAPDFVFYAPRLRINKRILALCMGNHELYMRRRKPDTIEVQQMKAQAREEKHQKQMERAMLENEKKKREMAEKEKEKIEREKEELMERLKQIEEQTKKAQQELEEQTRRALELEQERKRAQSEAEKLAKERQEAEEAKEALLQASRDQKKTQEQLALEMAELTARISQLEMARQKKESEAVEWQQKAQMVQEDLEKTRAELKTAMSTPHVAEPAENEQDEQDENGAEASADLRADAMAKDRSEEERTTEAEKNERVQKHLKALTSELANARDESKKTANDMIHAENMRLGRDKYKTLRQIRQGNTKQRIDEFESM

Molecular target: T1, NONO-BioID2 fusion protein (UniProt Q15233)
T1 sequence: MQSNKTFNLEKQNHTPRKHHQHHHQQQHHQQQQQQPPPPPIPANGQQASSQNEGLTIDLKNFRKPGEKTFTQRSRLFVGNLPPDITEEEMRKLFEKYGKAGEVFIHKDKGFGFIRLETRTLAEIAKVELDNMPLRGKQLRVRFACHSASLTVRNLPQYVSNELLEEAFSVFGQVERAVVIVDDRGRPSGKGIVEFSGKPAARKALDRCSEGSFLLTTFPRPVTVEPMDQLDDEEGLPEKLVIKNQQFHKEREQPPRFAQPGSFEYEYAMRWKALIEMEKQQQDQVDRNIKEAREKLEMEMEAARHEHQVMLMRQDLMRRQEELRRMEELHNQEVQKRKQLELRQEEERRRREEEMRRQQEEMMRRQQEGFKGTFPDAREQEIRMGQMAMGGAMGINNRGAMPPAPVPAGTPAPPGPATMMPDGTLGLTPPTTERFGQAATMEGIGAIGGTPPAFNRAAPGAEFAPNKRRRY
Test: proximity labelling; BioID2: NONO-BioID2 or BioID2 alone in MDA-MB-231 cells, 50 µM biotin for 16-18 h, streptavidin affinity purification, quantitative mass spectrometry

binding	Substance
binds	PKM2 (pyruvate kinase isozyme type M2), endogenous (from UniProt P14618 1-531)
binds	Moesin (MSN), endogenous (from UniProt P26038 1-577)
